Screen size: about 53,000 sequences; about 3,700 (7%) were called active.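 The calls were made as follows: active = gene knockdowns whose robust z-score for IL-1 alpha signal is at least 2 or at most -2, so actives lie on both sides; inactive = the rest.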 The list shows a part of the results.

Z-score data for 68 sequences are collected here from PubChem BioAssay AID1508600 (Functional Genomics Laboratory (NCATS/FGL), 2020).

The nature of this experiment: Components of the Cytosolic LPS Sensing Pathway: Gene Identification via Genome-wide siRNA Screen.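 Also: robust z of the log signal after scaling to non-targeting control siRNA wells of the plate.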 Particulars: RAW264.7 macrophages, IL-1a HTRF, actives lie on both sides, screened at 100 nM (by protocol), cells primed 5 h with Pam3CSK4 first. The method in brief:
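Cells (RAW264.7, 1×10^4 per well) were transfected with siRNA at 100 nM and cultured 48h at 37 degrees C. Pam3CSK4 was added for 5 hours; LipidA transfection followed for 24 hour. IL-1a was then measured by HTRF.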
(In general: TR-FRET usually uses a lanthanide donor and a delayed reading to cut background.)
For the sequence GGCAUUGUCCUGUGAUCUCTT against Il10ra, the z-score was inactive: -0.724.
For CCCUAUGCAAUAUAUAGACTT against Tmsb15l, the z-score was inactive: 0.174.
The value for GGUUGCCUCAACUCCAUUGTT against Olfr1412 was inactive: -0.426; that for GGAAAUACAAGUGGAAUUGTT against Etnppl was inactive: 0.204; that for GGACAGAUGCCAUCUCAGUTT against Anxa7 was inactive: -1.02.
The value for CGUAAAGCUUCCUGUGUCUTT against Tyw3 was inactive: -0.454; that for GCAGAGGUCUUACAAUUUATT against Epb41l2 was inactive: 0.624; that for GGCCUGGUAUAUAUCUGUCTT against Olfr6 was inactive: -1.41.
Regarding GGUUGUUGGCUGGAUGAUATT against Acvr2a, the z-score is inactive: -1.29.
The same measure for CGAAUCCUCACUAAAUUGGTT against Cnn3: inactive: -1.32; for GGAACUUUCCUUUUUUGUCTT against Serpinb5: inactive: 0.889.
The value for GGUUUUGAAAUUCCAGAAUTT against Nol9 was inactive: -0.22; that for GGAAAUUUAGAGUGGUUCGTT against Wdyhv1 was inactive: -0.246; that for GGAAAGUCCUUCAUCAGCATT against Cep120 was active: -2.91.
The value for GGAGAAGAAGAAAUCCAAATT against Scn11a was inactive: 1.45.
In the case of GGUCAAUGAGUUAGCUAUATT against Olfr1132, the z-score was inactive: -1.85.
The value for CCCAGGCUCCUAUUUGUUUTT against Calml3 was inactive: 0.288; that for CCUCCUUUAAGGAAAACCCTT against Alb was inactive: -1.38.
The value for “GGAUGACUAUGUGAAUAUATT against 4933404G15Rik” was inactive: -0.633.
The same measure for GGCGAAGAAGAAUAAAAGATT against Lyar: inactive: 1.37.
Turning to GGUCAGCGAACCACGAUAATT against Olfr314, the z-score was inactive: -0.792.
The same measure for GGAAUUAUGGAUUGUUAAGTT against Olfr212: inactive: 0.756.
The value for CCAUGGCACAGACAGCUAUTT against Celf1 was active: -2.02; that for GGUAAAUUACCCAAAGGUATT against Mrtfa was inactive: -0.494.
The value for CCAUAGUUGAUGGAAGAUATT against Shld2 was inactive: -0.847.
Consider GGGCCAUAUGUCUUUGCUATT against Olfr998, for which the z-score was inactive: 1.1.
The same measure for GGAAACUGUACAGAUAUUGTT against Fbn2: inactive: -0.885; for CGAUUGCUAAGGUGUUUGATT against Sfmbt1: inactive: -0.45; for GGAGGAUCAUGGUUGGGAUTT against Zkscan8: inactive: -0.229.
The same measure for GGAGAAAGGUGGUUUGGUATT against Sap30bp: active: -2.85; for GCAGGAAUCUAAUCUGCUGTT against Gpd1: inactive: 1.16; for GGGACAAUAACCUGAUGCUTT against Vmn1r210: inactive: 0.15.
The value for GGUCCAGAUCCACCAGAUUTT against Banp was inactive: 1.11; that for GCCAAGAAGAUGGAUCCGCTT against Zfp865 was inactive: -1.16; that for GGCGAUCUAUCACACUGUGTT against Chst7 was inactive: -0.443.
Turning to GGAGAAAGUCUCUCUUAGUTT against Ccdc69, the z-score is inactive: 0.55.
The value for GCGAAUCACCACCAUCACATT against Pcbp4 was inactive: -0.396; that for GGAACCUGCAUGAUAUAGGTT against Zfp617 was inactive: 0.683; that for GGAUGAAUUGAUUGAGAUCTT against Sv2a was inactive: -1.24.
Regarding CCUCUCAUUGGGAUGUUACTT against Slc9b1, the z-score is inactive: -1.59.
The same measure for GCGCAAGGAGAUCAUAGUCTT against Ankrd53: inactive: 0.996; for GGAGGAGUGUGUGAAAGGATT against Terf2ip: inactive: 0.743; for GGAGCUCACCAAAAUAGCUTT against Akr1c21: inactive: -0.77.
In the case of GGGUUUUAUGACCUUCAAGTT against Zkscan14, the z-score is inactive: 0.655.
The same measure for GGUGAUCCAGCUUUCUUGGTT against Tiaf2: inactive: -0.351; for GGAUCUCGUGCGAAAAAAATT against Olfr809: inactive: -0.292.
The same measure for CCGCUAACUAAAAAAAUCGTT against Xiap: inactive: 0.395; for UCACCGAAUGUCUUCUUCUTT against Olfr47: inactive: 1.93.
The value for GGACAACAGCAAAACAUCUTT against Atoh1 was inactive: -0.757; that for GCAGAAGAAGAAGGGUUCCTT against Emx1 was active: 3.59; that for GCCUUAAUGAGGGUUAUGCTT against Fbp1 was inactive: -1.11.
In the case of “GCUCUUAACAACGGGUGGATT against A130079P16Rik”, the z-score was inactive: -1.54.
On to GCUGAAAGCAUCCAAUGGGTT against Epb41, for which the z-score was inactive: 0.0831.
The value for GUCACUGUGAUGGGAAAUUTT against Olfr895 was inactive: -0.847; that for GGCUUUUGACUUCUUUGAGTT against Hs1bp3 was inactive: -0.306; that for GCUUGGGUACUAUGUAACATT against Rbm8a was inactive: 0.313.
GGCUCUUGGUCCAAUAAAATT against Zdhhc14: the z-score is inactive: -0.803.
The same measure for GCUACUCAGUCAACUCAAGTT against Ppp1r14d: inactive: 0.119; for GGAAGAGCACUUGAGGAUGTT against Gpank1: inactive: -0.186.
As for GGAGAAGCGGCAAAUGGAATT against Fam32a, the z-score was inactive: 0.429.
The same measure for CGCCAAAAGUUCUUGCCAUTT against Olfr618: active: -2.02.
The value for GGCAGCAAAAACAAGAGCCTT against Hmga2 was inactive: -0.114.
In the case of CCUUUAACCCUUUACACCUTT against Epop, the z-score is inactive: 0.0993.
The same measure for GGGACUGAGGACUACAUUCTT against Eif1b: inactive: -1.17.
With GGGAGUUAUAUAAAUGCAUTT against Taf7l, the z-score is inactive: -1.13.
The same measure for CGUGGUCAGGUUGUUUGAUTT against Cdk6: inactive: 0.885.
The value for GCCCAUUGUAAGAGUAACUTT against Dnttip2 was inactive: 0.168; that for ACAUUCUUGGUUGAGUGCUTT against Olfr198 was inactive: 0.195.
